# Only a part is listed here, and it is no random draw. At the low end of the ranking, values are background and their order means little.
# The chains behind the UniProt entries cited, without tags or fusion partners. Where a name states a change or a piece, a line headed by the entry shows the natural chain unless it says otherwise.
# UniProt O43186: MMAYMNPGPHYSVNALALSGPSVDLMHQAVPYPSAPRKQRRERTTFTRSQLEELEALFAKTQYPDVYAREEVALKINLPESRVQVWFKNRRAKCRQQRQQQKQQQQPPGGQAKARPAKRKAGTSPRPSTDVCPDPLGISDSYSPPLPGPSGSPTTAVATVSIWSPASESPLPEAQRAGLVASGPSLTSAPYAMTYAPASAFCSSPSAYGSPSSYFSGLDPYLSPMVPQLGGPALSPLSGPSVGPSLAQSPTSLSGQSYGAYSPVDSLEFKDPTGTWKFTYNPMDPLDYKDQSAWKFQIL
# Target: T1, FEV (UniProt Q99581)
# T1 sequence: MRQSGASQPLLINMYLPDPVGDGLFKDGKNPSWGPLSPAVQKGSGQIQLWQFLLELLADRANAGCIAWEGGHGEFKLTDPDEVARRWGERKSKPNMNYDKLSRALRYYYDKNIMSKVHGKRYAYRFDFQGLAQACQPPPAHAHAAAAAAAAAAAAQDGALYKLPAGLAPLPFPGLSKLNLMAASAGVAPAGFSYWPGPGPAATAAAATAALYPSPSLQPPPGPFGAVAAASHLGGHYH
# Test: DAPPL (digital affinity profiling via proximity ligation, sequencing)
# Conditions: 10 mM Tris-HCl pH 7.5, 50 mM NaCl, 1 mM DTT, 4% glycerol, room temperature, 30 min; GST-TFs on glutathione beads, 16-mer random dsDNA library, 0.1% …; high values mean tight binding; double strand, one strand shown; scale: fold enrichment (6-mer frequency, TF over GST control)
row,Sequence,binding signal
1,GACGCT,0.786
2,GGGCCA,0.739
3,CTGAGT,0.588
4,TAGCCA,0.805
5,CGGGTA,0.771
6,TAGACC,0.972
7,CAAGGG,0.92
8,AGTGAA,0.907
9,CGTGGG,0.357
10,CGTAAG,0.684
11,CGGAGG,0.296
12,GCCATG,0.798
13,CGGTTG,0.83
14,GGCGCG,0.632
15,GGCGCA,0.599
16,GAGGCA,0.461
17,CGGGCA,0.706
18,GCCGGG,0.386
19,GCGGCC,0.852
20,CAAGTC,0.859

row,Sequence,binding signal
1,CGAGTC,0.521
2,CTAGTC,0.704
3,AGGGGG,0.613
4,TTGGAC,0.947
5,ACAGTC,0.392
6,AGACAC,0.755
7,CGTGAC,0.579
8,GAAGGA,0.718
9,GCATGC,0.851
10,GCGGGC,0.804
11,AGTCAC,0.741
12,GCATGT,0.749
13,TAGGAG,0.374
14,AGGCAG,0.591
15,CCGTTG,0.831
16,GGGTCG,0.54
17,CAGTGT,0.638
18,AAGAGT,0.839
19,CAGTAG,0.588

# Target: CRX (UniProt O43186)
# Test: as above
# Conditions: 10 mM Tris-HCl pH 7.5, 50 mM NaCl, 1 mM DTT, 4% glycerol, room temperature, 30 min; GST-TFs on glutathione beads, 16-mer random dsDNA library, 0.1% …; high values mean tight binding; double strand, one strand shown; scale: fold enrichment (6-mer frequency, TF over GST control)
row,Sequence,binding signal
1,GACGCT,0.669
2,GGGCCA,0.525
3,CTGAGT,0.581
4,TAGCCA,0.964
5,CGGGTA,0.692
6,TAGACC,0.84
7,CAAGGG,0.762
8,AGTGAA,0.698
9,CGTGGG,0.312
10,CGTAAG,0.954
11,CGGAGG,0.217
12,GCCATG,0.622
13,CGGTTG,0.5
14,GGCGCG,0.491
15,GGCGCA,0.447
16,GAGGCA,0.363
17,CGGGCA,0.571
18,GCCGGG,0.293
19,GCGGCC,0.662
20,CAAGTC,0.675

row,Sequence,binding signal
1,CGAGTC,0.421
2,CTAGTC,0.787
3,AGGGGG,0.543
4,TTGGAC,0.863
5,ACAGTC,0.335
6,AGACAC,0.657
7,CGTGAC,0.402
8,GAAGGA,0.561
9,GCATGC,0.686
10,GCGGGC,0.553
11,AGTCAC,0.557
12,GCATGT,0.624
13,TAGGAG,0.453
14,AGGCAG,0.451
15,CCGTTG,0.693
16,GGGTCG,0.363
17,CAGTGT,0.587
18,AAGAGT,0.837
19,CAGTAG,0.589

# Target: T2, ELF5 (UniProt Q9UKW6-2)
# T2 sequence: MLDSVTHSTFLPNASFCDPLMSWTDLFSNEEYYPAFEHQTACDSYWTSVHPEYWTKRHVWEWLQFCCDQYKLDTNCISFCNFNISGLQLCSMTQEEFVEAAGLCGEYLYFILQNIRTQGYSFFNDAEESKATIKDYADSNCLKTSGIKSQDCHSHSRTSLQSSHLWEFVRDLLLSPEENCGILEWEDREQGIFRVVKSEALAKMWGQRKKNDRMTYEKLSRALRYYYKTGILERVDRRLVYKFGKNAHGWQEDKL
# Test: as above
# Conditions: 10 mM Tris-HCl pH 7.5, 50 mM NaCl, 1 mM DTT, 4% glycerol, room temperature, 30 min; GST-TFs on glutathione beads, 16-mer random dsDNA library, 0.1% …; high values mean tight binding; double strand, one strand shown; scale: fold enrichment (6-mer frequency, TF over GST control)
row,Sequence,binding signal
1,GACGCT,0.734
2,GGGCCA,0.625
3,CTGAGT,0.53
4,TAGCCA,0.792
5,CGGGTA,0.915
6,TAGACC,0.799
7,CAAGGG,0.844
8,AGTGAA,0.937
9,CGTGGG,0.332
10,CGTAAG,0.799
11,CGGAGG,0.276
12,GCCATG,0.745
13,CGGTTG,0.799
14,GGCGCG,0.576
15,GGCGCA,0.537
16,GAGGCA,0.43
17,CGGGCA,0.699
18,GCCGGG,0.412
19,GCGGCC,0.706
20,CAAGTC,0.823

row,Sequence,binding signal
1,CGAGTC,0.451
2,CTAGTC,0.755
3,AGGGGG,0.581
4,TTGGAC,0.908
5,ACAGTC,0.434
6,AGACAC,0.782
7,CGTGAC,0.543
8,GAAGGA,0.888
9,GCATGC,0.814
10,GCGGGC,0.605
11,AGTCAC,0.803
12,GCATGT,0.691
13,TAGGAG,0.382
14,AGGCAG,0.52
15,CCGTTG,0.881
16,GGGTCG,0.573
17,CAGTGT,0.626
18,AAGAGT,0.884
19,CAGTAG,0.566

# From paper PMC7862700
